Experimental data as given in patent US7037678.
Results are given in words; binding and its absence hold for the method and conditions named. Binding seen in cells or lysates may run through a third protein. Some results given as binding are weak or reduced against the parent protein; the word gives no strength.

Amino acid sequences for entries named in this document (tags omitted). A change or cut given only in a name is not applied to a line headed by its entry.
UniProt Q9DF50: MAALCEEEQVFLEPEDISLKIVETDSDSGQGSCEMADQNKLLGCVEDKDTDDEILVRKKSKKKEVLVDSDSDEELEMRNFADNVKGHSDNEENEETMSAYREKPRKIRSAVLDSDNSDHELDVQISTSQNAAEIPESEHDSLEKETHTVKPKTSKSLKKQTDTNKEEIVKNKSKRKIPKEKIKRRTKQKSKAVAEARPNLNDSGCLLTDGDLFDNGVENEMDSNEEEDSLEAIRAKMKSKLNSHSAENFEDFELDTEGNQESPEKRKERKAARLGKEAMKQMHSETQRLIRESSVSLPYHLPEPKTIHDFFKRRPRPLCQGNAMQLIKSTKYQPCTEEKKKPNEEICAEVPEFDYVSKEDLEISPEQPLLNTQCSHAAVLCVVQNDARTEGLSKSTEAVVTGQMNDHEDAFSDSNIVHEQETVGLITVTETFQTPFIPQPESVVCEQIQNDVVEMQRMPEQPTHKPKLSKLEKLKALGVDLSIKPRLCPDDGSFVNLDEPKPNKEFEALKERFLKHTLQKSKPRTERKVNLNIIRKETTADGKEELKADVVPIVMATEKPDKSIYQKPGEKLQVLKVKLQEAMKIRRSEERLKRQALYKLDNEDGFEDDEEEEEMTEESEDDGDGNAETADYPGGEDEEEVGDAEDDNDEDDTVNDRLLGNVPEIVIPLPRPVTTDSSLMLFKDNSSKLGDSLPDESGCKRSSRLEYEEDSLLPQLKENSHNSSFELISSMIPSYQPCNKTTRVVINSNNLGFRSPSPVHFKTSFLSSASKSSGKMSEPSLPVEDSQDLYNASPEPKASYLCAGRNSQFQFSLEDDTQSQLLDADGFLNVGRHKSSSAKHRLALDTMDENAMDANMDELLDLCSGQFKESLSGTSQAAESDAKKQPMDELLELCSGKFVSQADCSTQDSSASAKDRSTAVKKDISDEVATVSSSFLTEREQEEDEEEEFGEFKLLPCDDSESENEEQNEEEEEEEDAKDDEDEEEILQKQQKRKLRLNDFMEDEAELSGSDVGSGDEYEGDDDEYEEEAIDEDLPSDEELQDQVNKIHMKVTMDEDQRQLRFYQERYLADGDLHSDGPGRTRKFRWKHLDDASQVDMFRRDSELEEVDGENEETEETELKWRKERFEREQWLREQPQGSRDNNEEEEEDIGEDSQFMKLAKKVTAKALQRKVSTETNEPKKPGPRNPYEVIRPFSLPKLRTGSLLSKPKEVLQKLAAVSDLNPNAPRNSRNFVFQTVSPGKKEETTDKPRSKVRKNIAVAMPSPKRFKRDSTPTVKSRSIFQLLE

Biological target: T1, endogenous Xchk1 of Xenopus egg extract (Xenopus) (UniProt Q6DE87)
T1 sequence (looked up): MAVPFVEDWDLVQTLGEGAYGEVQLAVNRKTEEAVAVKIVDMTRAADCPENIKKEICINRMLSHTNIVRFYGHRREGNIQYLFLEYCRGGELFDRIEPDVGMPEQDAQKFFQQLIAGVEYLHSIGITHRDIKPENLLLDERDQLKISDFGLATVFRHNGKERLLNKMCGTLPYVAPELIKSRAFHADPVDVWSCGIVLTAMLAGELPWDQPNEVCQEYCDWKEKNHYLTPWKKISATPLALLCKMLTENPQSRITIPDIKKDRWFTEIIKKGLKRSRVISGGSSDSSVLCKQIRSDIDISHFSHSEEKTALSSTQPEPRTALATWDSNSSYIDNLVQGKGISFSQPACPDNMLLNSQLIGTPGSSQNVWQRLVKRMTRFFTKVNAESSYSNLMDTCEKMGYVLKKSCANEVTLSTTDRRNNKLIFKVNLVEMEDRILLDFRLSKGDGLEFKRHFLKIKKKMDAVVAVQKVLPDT
Assay: co-immunoprecipitation from egg extract with anti-Xchk1 antibodies, immunoblot with anti-Claspin antibodies; binding was significantly reduced with caffeine

endogenous Claspin of Xenopus egg extract (from UniProt Q9DF50 1-1285)
binding: binds
